Record: PubChem BioAssay AID504764 (Drosophila RNAi Screening Center, 2011)
In all, the deposit lists about 22,000 reagents; shown is a random part of those that have a named target and a result. Of all reagents, 403 (1.9%) got an active call. 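Unnormalised raw counts per well; ratio z-scores behind the hit calls and whether each hit raises or lowers signal are not deposited.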 Unmarked entries are inactive. Not given: the amount of reagent.

- Aim: 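Genome-wide screen for regulators of Notch-driven gene expression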 (primary screen)
- Cells: Drosophila Kc167 cells
- Knock-down reagent: long dsRNA against Drosophila genes
- Duration: about 5 days (4 days dsRNA, then 24 h after transfection)
- Treatment: transfection of constitutively active membrane-tethered Notch lacking the extracellular domain, read 24 h later
- Measured: 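Light from a Notch-responsive E(spl)m3 luciferase reporter under active Notch, with control-promoter and no-Notch reporter wells to normalise; raw counts from paired wells a and b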
- Direction: induced reporter light, run 1, well a and induced reporter light, run 1, well b: higher = more light from the Notch target reporter with active Notch; control promoter light, run 1, well a and control promoter light, run 1, well b: higher = more light from the viral control promoter (cell number, transfection, viability); uninduced reporter light, run 1, well a: higher = more light from the Notch target reporter without active Notch
- Call rule: 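Wells with low control signal or poorly matching duplicates excluded; duplicates averaged; per source plate, z beyond ±2 for induced/control log2 ratio or beyond ±1.8 for induced/uninduced marks a hit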
- Meaning of the calls: active = modifier hit (raised or lowered Notch signal); inactive = not a hit

{"gene":"CG5877","dsRNA":"DRSC19963","induced reporter light, run 1, well a":2.79e5,"induced reporter light, run 1, well b":2.00e5,"control promoter light, run 1, well a":2.45e5,"control promoter light, run 1, well b":2.53e5,"uninduced reporter light, run 1, well a":17015}
{"gene":"POLDIP2","dsRNA":"DRSC12194","induced reporter light, run 1, well a":1.50e5,"induced reporter light, run 1, well b":1.05e5,"control promoter light, run 1, well a":80820,"control promoter light, run 1, well b":79195,"uninduced reporter light, run 1, well a":10105}
{"gene":"rumpel","dsRNA":"DRSC18436","induced reporter light, run 1, well a":1.29e5,"induced reporter light, run 1, well b":1.10e5,"control promoter light, run 1, well a":2.41e5,"control promoter light, run 1, well b":1.99e5,"uninduced reporter light, run 1, well a":9380}
{"gene":"CG31782 (retired record)","dsRNA":"DRSC01554","induced reporter light, run 1, well a":99370,"induced reporter light, run 1, well b":1.07e5,"control promoter light, run 1, well a":84080,"control promoter light, run 1, well b":84975,"uninduced reporter light, run 1, well a":7750}
{"gene":"CG31782 (retired record)","dsRNA":"DRSC01556","induced reporter light, run 1, well a":62250,"induced reporter light, run 1, well b":88305,"control promoter light, run 1, well a":78490,"control promoter light, run 1, well b":88395,"uninduced reporter light, run 1, well a":7890}

Records above whose gene name begins with C or c (3):
{"gene":"CG5877","dsRNA":"DRSC19963","induced reporter light, run 1, well a":2.79e5,"induced reporter light, run 1, well b":2.00e5,"control promoter light, run 1, well a":2.45e5,"control promoter light, run 1, well b":2.53e5,"uninduced reporter light, run 1, well a":17015}
{"gene":"CG31782 (retired record)","dsRNA":"DRSC01554","induced reporter light, run 1, well a":99370,"induced reporter light, run 1, well b":1.07e5,"control promoter light, run 1, well a":84080,"control promoter light, run 1, well b":84975,"uninduced reporter light, run 1, well a":7750}
{"gene":"CG31782 (retired record)","dsRNA":"DRSC01556","induced reporter light, run 1, well a":62250,"induced reporter light, run 1, well b":88305,"control promoter light, run 1, well a":78490,"control promoter light, run 1, well b":88395,"uninduced reporter light, run 1, well a":7890}

Additional reagents:
{"gene":"hubl","dsRNA":"DRSC06825","induced reporter light, run 1, well a":1.59e5,"induced reporter light, run 1, well b":1.60e5,"control promoter light, run 1, well a":1.78e5,"control promoter light, run 1, well b":1.58e5,"uninduced reporter light, run 1, well a":14805}
{"gene":"CG15927","dsRNA":"DRSC19742","induced reporter light, run 1, well a":"68770 (active)","induced reporter light, run 1, well b":75150,"control promoter light, run 1, well a":81325,"control promoter light, run 1, well b":53135,"uninduced reporter light, run 1, well a":4010}
{"gene":"wry","dsRNA":"DRSC00352","induced reporter light, run 1, well a":1.44e5,"induced reporter light, run 1, well b":1.55e5,"control promoter light, run 1, well a":1.31e5,"control promoter light, run 1, well b":1.05e5,"uninduced reporter light, run 1, well a":11160}
{"gene":"wry","dsRNA":"DRSC00456","induced reporter light, run 1, well a":1.57e5,"induced reporter light, run 1, well b":1.49e5,"control promoter light, run 1, well a":1.39e5,"control promoter light, run 1, well b":1.23e5,"uninduced reporter light, run 1, well a":10770}
{"gene":"PolH","dsRNA":"DRSC11800","induced reporter light, run 1, well a":1.19e5,"induced reporter light, run 1, well b":1.20e5,"control promoter light, run 1, well a":64310,"control promoter light, run 1, well b":99215,"uninduced reporter light, run 1, well a":10290}
{"gene":"CG3726","dsRNA":"DRSC18320","induced reporter light, run 1, well a":2.08e5,"induced reporter light, run 1, well b":1.80e5,"control promoter light, run 1, well a":1.75e5,"control promoter light, run 1, well b":1.70e5,"uninduced reporter light, run 1, well a":13205}
{"gene":"Or22b","dsRNA":"DRSC00765","induced reporter light, run 1, well a":1.12e5,"induced reporter light, run 1, well b":1.01e5,"control promoter light, run 1, well a":1.10e5,"control promoter light, run 1, well b":67960,"uninduced reporter light, run 1, well a":9428}
